Source: patent US20040109905A1, “Method and composition of anthocyanin-rich berry extracts that prevents or inhibits angiogenesis and helicobacter pylori and acts as a powerful antioxidant that provides various health benefits” (priority 2002, published 2004)
At least one compound was matched to its structure with a doubt left.

System: H2O2-induced expression of VEGF
Assay: H2O2-induced VEGF expression in HaCaT keratinocytes (ELISA)
Format: cell-based
Details: human keratinocytes
Protocol: The cells used for the test were immortalized HaCaT human keratinocytes grown in Dulbecco's modified Eagle's medium (provided by Life Technologies of Gaithersburg, Md.) and supplemented with 10% fetal bovine serum, 100 U/mL penicillin and 100 μg/mL streptomycin.
Solutions incorporating berry extracts or GSPE were prepared fresh in dimethyl sulfoxide at concentrations such that the final concentration of the solvent in cell suspension never exceeded 0.1% prior to cell treatment, the DMSO solutions were passed through a […] filter for sterilization. Respective controls were treated with equal volumes of dimethyl sulfoxide. The test cells were pretreated with the berry solutions.
Test cells were seeded onto multiple well culture-plates. After 24 hours of growth at 80% confluency, the cells were synchronized by culturing them in a serum-deprived medium for 12 hours. Following the synchronization, the cells were treated with H2O2 or TNFα. The berry treatment protocols are described in the legends for Tables 2 through 4 below. A serum-free medium was selected to avoid any possible interaction between the serum components and H2O2. The VEGF level in the medium was determined using a commercially available ELISA kit, marketed by R and D systems of Minneapolis, Minn.
HaCaT cells were seeded at density 0.45×10^6/well/3 ml. […]

Structure (SMILES): C[C@@H]1O[C@@H](OC[C@H]2O[C@@H](Oc3c(-c4ccc(O)c(O)c4)oc4cc(O)cc(O)c4c3=O)[C@H](O)[C@@H](O)[C@@H]2O)[C@H](O)[C@H](O)[C@H]1O [Rutin]
- effect on H2O2 (oxidant)-inducible VEGF expression, in words: suppress oxidant-inducible VEGF expression to some degree
